Test results reported in publication PMC5085163.
No constants are given. Whether binding was seen depends on the method and setting. Binding seen in cells or lysates may run through a third protein.

Sequences of proteins named here, by UniProt entry; tags and fusion partners are left off.
UniProt Q04724: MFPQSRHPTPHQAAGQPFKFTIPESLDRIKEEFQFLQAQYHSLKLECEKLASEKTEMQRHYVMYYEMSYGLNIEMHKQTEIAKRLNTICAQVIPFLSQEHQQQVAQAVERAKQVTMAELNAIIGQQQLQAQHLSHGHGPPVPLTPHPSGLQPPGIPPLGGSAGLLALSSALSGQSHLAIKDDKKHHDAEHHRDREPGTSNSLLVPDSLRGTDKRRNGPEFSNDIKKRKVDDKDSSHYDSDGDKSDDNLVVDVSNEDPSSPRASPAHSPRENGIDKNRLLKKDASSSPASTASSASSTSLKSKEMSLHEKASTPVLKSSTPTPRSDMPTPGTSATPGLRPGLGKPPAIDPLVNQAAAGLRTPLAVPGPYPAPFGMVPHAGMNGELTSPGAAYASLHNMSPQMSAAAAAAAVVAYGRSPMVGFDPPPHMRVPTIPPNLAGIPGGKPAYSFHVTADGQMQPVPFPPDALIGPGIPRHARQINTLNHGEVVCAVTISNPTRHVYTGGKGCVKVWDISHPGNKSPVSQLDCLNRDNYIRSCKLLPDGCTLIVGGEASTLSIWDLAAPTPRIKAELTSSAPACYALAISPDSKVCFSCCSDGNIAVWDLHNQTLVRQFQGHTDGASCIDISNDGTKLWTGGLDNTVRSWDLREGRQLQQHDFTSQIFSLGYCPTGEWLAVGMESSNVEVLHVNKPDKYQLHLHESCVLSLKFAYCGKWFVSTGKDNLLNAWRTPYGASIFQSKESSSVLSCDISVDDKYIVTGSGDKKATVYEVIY
UniProt Q15532: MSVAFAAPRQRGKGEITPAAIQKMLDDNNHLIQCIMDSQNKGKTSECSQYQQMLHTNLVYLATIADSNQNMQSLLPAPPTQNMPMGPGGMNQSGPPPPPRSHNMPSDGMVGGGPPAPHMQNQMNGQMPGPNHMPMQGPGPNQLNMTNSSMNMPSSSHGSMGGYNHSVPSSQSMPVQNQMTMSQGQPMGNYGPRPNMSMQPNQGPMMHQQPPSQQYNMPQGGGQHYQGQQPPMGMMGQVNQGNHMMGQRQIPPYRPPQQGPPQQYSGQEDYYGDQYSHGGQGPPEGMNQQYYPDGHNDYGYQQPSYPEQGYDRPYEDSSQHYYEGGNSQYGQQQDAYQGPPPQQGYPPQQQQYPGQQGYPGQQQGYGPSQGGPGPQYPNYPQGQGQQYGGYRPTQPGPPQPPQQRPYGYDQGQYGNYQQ

Columns and labels:
[1] = target: transducin-like enhancer of split 1 (TLE1) (human (endogenous in synovial sarcoma and control cell lines and tumor tissue)) (UniProt Q04724); assay: proximity ligation; Duolink In Situ Red kit on cultured cells fixed with 3% formaldehyde and permeabilized with 0.1% Triton X-100; rabbit anti-SS18 and mouse anti-TLE1 primary antibodies overnight at 4°C; nuclear foci per nucleus; also done after HDAC inhibitors, SXT1596 and siRNA/shRNA against SS18-SSX
[2] = target: transducin-like enhancer of split 1 (TLE1) (human (endogenous in synovial sarcoma and control cell lines and tumor tissue)) (UniProt Q04724); assay: proximity ligation; brightfield Duolink protocol on 4 μm FFPE sections of tumor tissue and embedded cell line pellets; anti-SS18 and anti-TLE1 overnight

binding [1]: no binding | binding [2]: no binding
Substance: wild-type SS18 (from UniProt Q15532 1-418)
